Data taken from PMC10567733, “C9orf72-catalyzed GTP loading of Rab39A enables HOPS-mediated membrane tethering and fusion in mammalian autophagy” (Nature Communications, 2023).
No constants are given. Whether binding was seen depends on the method and setting. Binding seen in cells or lysates may run through a third protein. Binding calls can cover weak binding; strength is not graded here. Sequences can lack the tags named with a protein.

Sequences of proteins named here, by UniProt entry; tags and fusion partners are left off. A change or cut given only in a name is not applied to a line headed by its entry.
UniProt Q96DA2: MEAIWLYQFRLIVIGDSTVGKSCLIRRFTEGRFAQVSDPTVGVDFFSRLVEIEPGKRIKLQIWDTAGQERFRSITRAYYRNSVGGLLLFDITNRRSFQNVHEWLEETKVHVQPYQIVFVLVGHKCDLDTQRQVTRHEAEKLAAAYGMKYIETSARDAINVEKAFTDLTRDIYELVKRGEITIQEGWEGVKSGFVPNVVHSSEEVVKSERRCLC

Target: T1, C9orf72-HA (human) (UniProt Q96LT7)
T1 sequence: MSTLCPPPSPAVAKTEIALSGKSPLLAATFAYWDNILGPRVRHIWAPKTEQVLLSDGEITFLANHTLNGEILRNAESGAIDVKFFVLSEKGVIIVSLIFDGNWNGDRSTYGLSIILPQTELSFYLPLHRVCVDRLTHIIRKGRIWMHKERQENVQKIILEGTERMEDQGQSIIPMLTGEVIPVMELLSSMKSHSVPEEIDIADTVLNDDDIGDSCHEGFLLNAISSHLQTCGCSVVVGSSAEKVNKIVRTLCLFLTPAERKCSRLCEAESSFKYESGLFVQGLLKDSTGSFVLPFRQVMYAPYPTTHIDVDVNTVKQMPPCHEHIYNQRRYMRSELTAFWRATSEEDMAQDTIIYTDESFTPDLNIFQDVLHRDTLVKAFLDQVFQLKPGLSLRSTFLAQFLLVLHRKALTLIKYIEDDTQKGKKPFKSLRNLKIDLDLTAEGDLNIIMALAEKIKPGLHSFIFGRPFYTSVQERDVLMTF
Experiment: co-IP; 293T cells transfected with tagged protein expression plasmids, lysed after 24 h, IP with Flag M2 agarose or HA agarose, immunoblot; in some panels with or without overexpressed Rab39A, with or without 50 nM Torin 1 for 3 h

With EGFP-Rab39B SN (from UniProt Q96DA2) the binding was “binds”.
